Data reported in patent US20070292434A1 (VIB VZW, published 2007).
These are yes or no findings as the source states them, for the method shown. For some of these results: In cells and extracts the contact can be indirect. Some binding calls cover weakened binding; strength is not graded here. For some of these results: Where a sequence is shown, tags or fusion partners need not be part of it.

Amino acid sequences for entries named in this document (tags omitted). A change or cut given only in a name is not applied to a line headed by its entry. Residues count along the entry.
UniProt P41160, residues 22-167: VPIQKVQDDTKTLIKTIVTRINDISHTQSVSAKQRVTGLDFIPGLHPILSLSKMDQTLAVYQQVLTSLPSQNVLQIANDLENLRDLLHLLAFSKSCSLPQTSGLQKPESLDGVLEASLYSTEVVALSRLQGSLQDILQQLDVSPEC

Assays:
CRH2-FLAG-His (murine) = CRH2-FLAG-His (murine) (UniProt P48356); assay: His/SEAP co-precipitation with metal affinity resin; seen only when both proteins were co-expressed in the same cell
[1] = target: wild-type murine leptin receptor (mLR), long isoform (murine) (UniProt P48356); assay: leptin-SEAP binding to transfected Hek293T cells, alkaline phosphatase read-out
[2] = target: wild-type murine leptin receptor (mLR), long isoform (murine) (UniProt P48356); assay: non-reducing SDS-PAGE and anti-FLAG Western blot of COS-1 lysates (self-association, disulphide-linked)
FNIII-FLAG-His (murine) = target: T1, FNIII-FLAG-His (murine) (UniProt P48356); assay: His/SEAP co-precipitation with Ni2+ affinity resin from supernatants of co-transfected Hek293T cells
T1 sequence (looked up): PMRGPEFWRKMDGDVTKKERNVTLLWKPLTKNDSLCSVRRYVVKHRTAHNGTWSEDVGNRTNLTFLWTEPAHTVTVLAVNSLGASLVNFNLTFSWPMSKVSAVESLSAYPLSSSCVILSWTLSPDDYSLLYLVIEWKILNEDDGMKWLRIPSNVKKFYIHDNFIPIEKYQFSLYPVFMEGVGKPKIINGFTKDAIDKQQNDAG

CRH2-SEAP-FLAG (from UniProt P48356 428-635) (receptor)
binding (CRH2-FLAG-His (murine)): binds

mouse leptin-SEAP chimeric protein (from UniProt P41160 22-167) (ligand)
binding [1]: binds

wild-type murine leptin receptor (mLR), long isoform (from UniProt P48356 22-1162)
binding [2]: binds

B1: FNIII-FLAG-His (receptor, murine, UniProt P48356 637-839, looked up, not shown: small tags and cut ends)
chain: PMRGPEFWRKMDGDVTKKERNVTLLWKPLTKNDSLCSVRRYVVKHRTAHNGTWSEDVGNRTNLTFLWTEPAHTVTVLAVNSLGASLVNFNLTFSWPMSKVSAVESLSAYPLSSSCVILSWTLSPDDYSLLYLVIEWKILNEDDGMKWLRIPSNVKKFYIHDNFIPIEKYQFSLYPVFMEGVGKPKIINGFTKDAIDKQQNDAG
notes: domain: FNIII domains; Secreted from COS-1 or Hek293T cells; runs as di-, tri- and higher order disulphide-linked clusters under non-reducing conditions; also called mLR FNIII-FLAG-His; soluble FNIII domains
binding (FNIII-FLAG-His (murine)): binds
